Measurements taken from the supplement of paper PMC12578635.
± gives the standard deviation of the averaged measurements. Some of the results follow. Single values are uncertain, as repeats are few or missing.

Tested on: RAW 264.7 macrophages infected with S. aureus JE2-lux
Assay: host macrophage viability (CellTiter-Fluor) relative to DMSO vehicle; higher = more viable host cells
Settings: 10 µM; treatment time 4 h; gentamicin 50 µg/ml

| Compound | host macrophage viability |
| --- | --- |
| Cc1ccc(NC(=O)C2OCOc3ccccc32)cc1N1CCCCC1 (configuration not stated) | 117% |
| O=C(CS(=O)CC(=O)Nc1cnc2ccccc2c1)Nc1ccc(Cl)cc1 (configuration not stated) | 116% |
| O=C(CSc1nc2[nH]ncc2c(=O)n1-c1ccccc1)Nc1ccc(Cl)cc1Cl | 115% |
| Cc1ccc(S(=O)(=O)CCCC(=O)Nc2nc3c(C)c(Cl)ccc3s2)cc1 | 76.8% |
| N#Cc1nc(/C=C/c2cccs2)oc1N1CCNCC1 | 114% |
| CC1(C)Oc2ccc(S(=O)(=O)NCCCN3CCOCC3)cc2NC1=O | 107% |
| CCc1cc2c(N3CCCC(C(=O)Nc4cc(C)ccc4OC)C3)ncnc2s1 (configuration not stated) | 125% |
| Cc1ccc(-n2nnc3c(=O)n(CC(=O)N4CCc5ccccc54)cnc32)cc1C | 118% |
| O=C(Cc1ccc(Cl)cc1)Nc1cccc(-c2ccc3nncn3n2)c1 | 112% |
| N#CC1=C(SCC(=O)Nc2ccccc2F)NC2=C(C(=O)CCC2)C1c1ccco1 (configuration not stated) | 123% |
| Cc1ccc(OCC(=O)N/N=C/c2ccccc2O)cc1 | 127% |
| Cc1cc(Cl)ccc1OCC(=O)Nc1ccc(S(=O)(=O)Nc2onc(C)c2C)cc1 | 108 ± 6.4% |
| CCc1ccc(S(=O)(=O)c2c(C(=O)N3CCCC3)cnc3ccc(C)cc23)cc1 | 114% |
| CCOc1ccc(-n2ccnc(NCc3ccc4c(c3)OCO4)c2=O)cc1 | 120% |
| CC1CC(C)CN(C(=O)c2cccn3c(-c4ccc(F)cc4)nnc23)C1 (configuration not stated) | 118% |
| COc1cc(NS(=O)(=O)c2cc(-c3nc(C)cs3)cs2)cc(OC)c1 | 120% |
| CCc1cccc(OCC(O)Cn2c(N3CCN(C)CC3)nc3c2c(=O)[nH]c(=O)n3C)c1 (configuration not stated) | 135% |
| Cc1c(C(=O)C2=C(O)C(=O)N(CCN(C)C)C2c2ccco2)cnn1-c1ccccc1 (configuration not stated) | 104% |
| COc1cccc(NC(=O)CSc2nc(-c3ccccc3)nc3c2Cc2cccc(OC)c2O3)c1 | 114% |
| N#Cc1c(O)nc(N2CCCCC2)nc1-c1ccc2c(c1)OCO2 | 122% |
| CCOC(=O)c1ccccc1NC(=O)CSc1ncc(CO)n1Cc1ccc(OC)cc1 | 108% |
| NC(=O)c1ccccc1NC(=O)c1cccn(OCc2ccccc2F)c1=O | 128% |
| Cc1ccccc1-c1nc2sc(N3CCN(CC(=O)N4CCCC4)CC3)nn2c1NC(C)(C)C | 105% |
| O=C(Cc1cc(=O)[nH]c(=O)[nH]1)N1CCN(C(=O)c2ccco2)CC1 | 114% |
| Cc1cc(=O)n2nc(NCc3ccc(C(=O)Nc4ccc(C)c(Cl)c4)cc3)nc2[nH]1 | 119% |
| O=C(CSc1ncccc1C(=O)O)Nc1ccc(Cl)cc1 | 127% |

| Compound | host macrophage viability |
| --- | --- |
| COc1ccc(N2CC(NC(=O)Nc3nc4ccc(C)cc4s3)CC2=O)cc1OC (configuration not stated) | 125% |
| Cc1ccc(S(=O)(=O)CCCC(=O)Nc2ccc3c(c2)C(=O)NC3=O)cc1 | 135% |
| CC(C)(C)C(=O)N1CCC(NS(=O)(=O)c2ccc3c(c2)NC(=O)CO3)CC1 | 115% |
| CCN(c1ccccc1)S(=O)(=O)c1ccc2[nH]c(=O)cc(C)c2c1 | 122% |
| O=C(Cn1cccc1-c1nc(-c2ccccc2)cs1)N1CC=C(c2ccccc2)CC1 | 116% |
| COc1ccc2cc(CCNC(=O)c3cccc(C(F)(F)F)c3)c(=O)[nH]c2c1 | 123% |
| COC(=O)c1ccc(C(=O)NNc2nc3c(C)cc(C)cc3s2)cc1 | 141 ± 14% |
| O=C(CCc1ccccc1)Nc1c2c(nn1-c1ccccc1)CS(=O)(=O)C2 | 93% |
| O=C(NCCCSc1nc2ccccc2o1)Nc1ncccn1 | 114% |
| Nc1cc(-c2ccco2)nn(CC(=O)NCC2COc3ccccc3O2)c1=O (configuration not stated) | 110% |
| Cn1c(CN2CCOCC2)nc2cc(NC(=O)C3(C)CCCO3)ccc21 (configuration not stated) | 96.5% |
| O=C(CC1C(=O)N(c2ccc(F)cc2)C(=O)N1NC(=O)c1ccccc1)NCc1ccccc1 (configuration not stated) | 128% |
| Cc1cc2cc(CNC(=O)NC3CCCCC3)ccc2[nH]1 | 110 ± 0.35% |
| CC1Cc2nc(SCC(=O)NCC3CCCO3)n(C)c(=O)c2S1 (configuration not stated) | 119% |
| CS(=O)(=O)c1ccc2nc(NC(=O)c3ccccc3[N+](=O)[O-])sc2c1 | 110% |
| Cc1nn(C)c(C)c1CNC(=O)Cn1c(=O)c(=O)n(Cc2ccncc2)c2ncccc21 | 146% |
| CCOc1ccc(NC(=O)c2sc3nc4c(cc3c2N)C(=O)CC(C)(C)C4)cc1 | 99.9% |
| Cc1cc(NC(=O)COc2ccc3ccccc3c2)nc2c1c(=O)oc1ccccc12 | 119% |
| CCOc1ccc(CCNC(=O)c2nnn(CC(=O)Nc3cc(C)cc(C)c3)c2N)cc1OCC | 131% |
| O=C(N/N=C/c1c(F)cccc1Cl)c1n[nH]c2c1CCC2 | 99.9% |
| COc1ccc(S(=O)(=O)NC(=N)NCCc2c[nH]c3ccc(F)cc23)cc1 | 128% |
| COc1cc(Nc2cc(C)nc3ncnn23)cc(OC)c1 | 98.6% |
| O=C(CSc1nc(-c2ccccc2)no1)Nc1ccccc1Cl | 114% |
| CC1CCCN(c2ccc3cccc(OCC(=O)Nc4ccc5c(c4)OCO5)c3n2)C1 (configuration not stated) | 127% |
| CCOc1ccc2c(c1)c(=O)c(C(=O)c1ccccc1)cn2CC(=O)Nc1cccc(OC)c1 | 108% |
| NC(=O)COC(=O)c1cccc2c1-c1ccccc1C2=O | 137% |

| Compound | host macrophage viability |
| --- | --- |
| O=C(Nc1nnc(-c2ccc(Br)cc2)s1)C1CC1 | 124% |
| O=C(CCn1cnc(-c2ccccc2)c1-c1ccccc1)N/N=C/c1ccco1 | 107% |
| Cc1cccc(-c2nc3n(CC(=O)N(CCO)Cc4ccccc4)c(C)cc(=O)n3n2)c1 | 121% |
| COc1ccc(N2CCN(Cc3nc4c(c(=O)n(C)c(=O)n4C)n3CC(C)=O)CC2)cc1 | 114% |
| CCCCOC(=O)c1ccc(Nc2ncnc3c2cnn3-c2ccccc2)cc1 | 78.6% |
| CC(=O)Oc1ccccc1C(=O)Oc1ccc(/C=N\n2cnnc2)cc1 | 125% |
| Cc1ccc(CN2C3CCCC2CC(NC(=O)NCc2ccccc2)C3)cc1 (configuration not stated) | 125% |
| COc1ccc2c(c1)s/c(=N\C(=O)CSCC(=O)N1CCc3ccccc31)n2C | 119% |
| NC(=O)c1ccc(NC(=O)C(=O)Nc2cccc(N3CCCC3=O)c2)cc1 | 107% |
| N#C/C(=C\c1ccc(-c2ccc([N+](=O)[O-])cc2)o1)c1nc(-c2cccs2)cs1 | 111% |
| CCOC(=O)c1oc2ccccc2c1NC(=O)Cc1cccs1 | 115 ± 1.9% |
| Cc1nnc2ccc(-n3ncc4c3NC(=O)CC4c3ccccc3OC(C)C)nn12 (configuration not stated) | 106% |
| C[C@@H]1CN(Cc2ccccc2F)CCN1CC(=O)N1CC(=O)Nc2ccccc21 | 107% |
| O=C(CSc1nc(=O)n(CC2CCCO2)c2c1CCCC2)Nc1nc2ccccc2s1 (configuration not stated) | 111% |
| O=C(NNc1nc2cc3c(cc2s1)OCCO3)c1ccccc1 | 105 ± 9.4% |
| Cn1c(=O)[nH]c2cc(-c3noc(CNS(=O)(=O)c4ccccc4)n3)ccc21 | 145% |
| Cc1c(NC(=O)c2cc(-c3ccccc3)on2)c(=O)n(-c2ccccc2)n1C | 113% |
| CCOC(=O)N1CCN(C(=O)CSc2nc3c(c(=O)n2-c2cccc(OC)c2)SCC3)CC1 | 103% |
| O=C(Nc1cnc(N2CCN(c3ccccn3)CC2)c(C(=O)O)c1)c1ccc(F)cc1 | 124% |
| Cc1cc(=O)[nH]c2c(C)cc(S(=O)(=O)NC3CCCCC3)cc12 | 138% |
| O=C(CN1C(=O)c2ccccc2S1(=O)=O)Nc1nccs1 | 129% |
| Cc1ccc(NS(=O)(=O)c2ccc3[nH]c(=O)[nH]c3c2)cc1C | 122% |
| COc1ccc(/C=C2\SC(=S)N(CCC(=O)Nc3ccc(C(=O)O)c(O)c3)C2=O)cc1OC | 118% |
| Nc1ccc(Cc2ccc(N)c([N+](=O)[O-])c2)cc1[N+](=O)[O-] | 103% |
| CC(C(=O)N1CCCC1)C1CCN(C(=O)c2cc3cc(Cl)ccc3[nH]2)CC1 (configuration not stated) | 108% |
| CC(=O)C1C(c2ccc(OC(F)F)cc2)NC(=O)NC1(O)C(F)(F)F (configuration not stated) | 126% |

7 entries from above, as tab-separated lines:
Compound	host macrophage viability
Cn1c(=O)[nH]c2cc(-c3noc(CNS(=O)(=O)c4ccccc4)n3)ccc21	145%
Cc1c(NC(=O)c2cc(-c3ccccc3)on2)c(=O)n(-c2ccccc2)n1C	113%
CCOC(=O)N1CCN(C(=O)CSc2nc3c(c(=O)n2-c2cccc(OC)c2)SCC3)CC1	103%
O=C(Nc1cnc(N2CCN(c3ccccn3)CC2)c(C(=O)O)c1)c1ccc(F)cc1	124%
Cc1cc(=O)[nH]c2c(C)cc(S(=O)(=O)NC3CCCCC3)cc12	138%
O=C(CN1C(=O)c2ccccc2S1(=O)=O)Nc1nccs1	129%
Cc1ccc(NS(=O)(=O)c2ccc3[nH]c(=O)[nH]c3c2)cc1C	122%

The listing continues:

| Compound | host macrophage viability |
| --- | --- |
| COc1ccc(-c2[nH]c3ccccc3c2SCCNC(C)=O)cc1 | 117% |
| Cc1ccc(C)c(CSc2nc(=O)n3cc(Cl)ccc3n2)c1 | 110% |
| CCC(=O)Nc1ccc2nc(SCc3cc(=O)n4nc(-c5ccccc5)[nH]c4n3)sc2c1 | 127% |
| CCc1cc2c(N(CC)c3ccccc3)ncnc2s1 | 140% |
| O=C(CCCS(=O)(=O)c1ccccc1)Nc1nc2c(cc3c4c(cccc42)CC3)s1 | 86.6% |
| O=C(Nn1cnc2c(cnn2-c2ccccc2)c1=O)c1ccc(F)c(F)c1 | 124% |
| Cc1ccc(NS(=O)(=O)c2cc(-c3cc(C(F)(F)F)on3)cs2)c(Br)c1 | 122% |
| Cc1ccc(CNC(=O)c2cc(-c3ccccn3)[nH]n2)cc1 | 122% |
| CCOc1ccc(NC=C(S(=O)(=O)c2ccccc2)S(=O)(=O)c2ccccc2)c([N+](=O)[O-])c1 | 99.3% |
| CCS(=O)(=O)Nc1cccc(C(=O)CC2(O)C(=O)Nc3ccc(Br)cc32)c1 (configuration not stated) | 109% |
| Cn1ccnc1CNS(=O)(=O)c1ccc2c(c1)c(=O)n(C)c(=O)n2C | 114% |
| Cc1ccc(C(=O)N2CCC(O)CC2)c(N2CCN(C(=O)c3ccco3)CC2)n1 | 106% |
| COc1cccc(NC(=O)N(Cc2cc3cccc(C)c3nc2Cl)C2CCCCC2)c1 | 119% |
| CCN(C(=O)CCc1nc(-c2nn(-c3ccc(Cl)cc3)c(=O)n(C)c2=O)no1)c1ccccc1C | 107% |
| Nc1ncnc(N2CCc3ccccc32)c1[N+](=O)[O-] | 102% |
| COc1ccc(-c2nsc3c(SCC(=O)NCc4cccs4)ncnc23)cc1 | 146% |
| CCOc1ccc(Nc2nc3c(C)cccn3c(=O)c2C=O)cc1 | 115% |
| CCCN1CCN(c2ncnc3sc(C(=O)NCc4ccc5c(c4)OCO5)c(C)c23)CC1 | 122% |
| CSC1=C(C#N)C2(CCCCC2)C(c2nc(-c3ccc(C)cc3)cs2)C(=N)N1 (configuration not stated) | 111% |
| Cn1cnc(S(=O)(=O)N2CCC(c3nnc(C(=O)Nc4ccccc4)s3)CC2)c1 | 123% |
| O=C(CCCC1=Nc2ccccc2S(=O)(=O)N1)OCc1ccc(F)cc1 | 97.3% |
| O=C(CSc1nc(=O)[nH]c2c1CCC2)N1CCCC1 | 121% |
| O=c1[nH]cc(S(=O)(=O)N2CCN(Cc3ccccc3)CC2)c(=O)[nH]1 | 112% |
| CCOC(=O)c1cnc(SCC(=O)NNC(C)=O)nc1N | 116% |
